Source: article PMC13191473

Target: T1, AXL (mouse (endogenous in lung tissue)) (UniProt Q00993)
T1 sequence: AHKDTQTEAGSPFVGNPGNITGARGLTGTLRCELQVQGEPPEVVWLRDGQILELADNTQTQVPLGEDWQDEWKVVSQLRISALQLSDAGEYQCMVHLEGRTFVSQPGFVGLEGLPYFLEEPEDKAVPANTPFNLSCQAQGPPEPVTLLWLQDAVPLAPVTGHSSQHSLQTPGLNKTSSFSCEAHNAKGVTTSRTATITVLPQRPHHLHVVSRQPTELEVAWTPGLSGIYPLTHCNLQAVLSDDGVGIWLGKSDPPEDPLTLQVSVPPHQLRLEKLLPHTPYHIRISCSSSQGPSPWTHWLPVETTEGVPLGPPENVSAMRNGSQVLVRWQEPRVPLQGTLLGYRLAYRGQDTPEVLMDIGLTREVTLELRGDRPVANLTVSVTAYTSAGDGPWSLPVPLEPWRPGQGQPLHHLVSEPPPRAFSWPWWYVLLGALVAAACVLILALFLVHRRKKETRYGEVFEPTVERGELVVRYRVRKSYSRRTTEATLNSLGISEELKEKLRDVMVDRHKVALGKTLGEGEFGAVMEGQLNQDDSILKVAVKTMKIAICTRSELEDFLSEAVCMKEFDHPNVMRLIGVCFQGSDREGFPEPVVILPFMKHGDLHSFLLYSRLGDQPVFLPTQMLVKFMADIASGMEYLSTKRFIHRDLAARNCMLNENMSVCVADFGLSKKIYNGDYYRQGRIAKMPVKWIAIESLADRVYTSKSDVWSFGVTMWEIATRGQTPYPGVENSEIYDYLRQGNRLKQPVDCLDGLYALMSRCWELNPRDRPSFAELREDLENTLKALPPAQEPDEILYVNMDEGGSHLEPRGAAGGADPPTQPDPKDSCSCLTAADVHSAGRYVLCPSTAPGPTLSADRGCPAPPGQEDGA
Test: co-IP; Lung tissue lysate (RIPA, protease inhibitors) from vehicle- or rPROS1-treated mice (2 μg/mouse/day for 4 days); precleared with Dynabeads protein G; anti-AXL antibody or IgG with Dynabeads protein G overnight at 4°C; immunoblots for Gab1, p85 and AXL

- binding: binds
Substance: p85, a regulatory subunit of PI3K (mouse (endogenous in lung tissue))

No constants are given. Whether binding was seen depends on the method and setting. Binding seen in cells or lysates may run through a third protein. Binding calls can cover weak binding; strength is not graded here.
